The source of these data is patent publication US20220348659A1 (TWIST BIOSCIENCE, published 2022).

These are yes or no findings as the source states them, for the method shown. Some binding calls cover weakened binding; strength is not graded here.

In the test the target is CD3 on human CD8+ T cells. In words: flow cytometry on primary CD8 T cells, antibody at 100 nM; bar = MFI APC+ subset; title 'TB252 binding primary CD8T'.

B1: CD3-252-22 (VHH)
VHH: EVQLVESGGGLVQPGGSLRLSCAASGNIFTRHIMGWFRQAPGKEREFVAAITNGGSTKYADSVKGRFTISADNSKNTAYLQMNSLKPEDTAVYYCARQDYYDSSGHIRYWGQGTLVTVSS
notes: also called CD3-252-022
Regarding B1, the binding result is listed as “binds”.
